Measurements taken from patent US9737587B2, “Treatment of autism spectrum disorders with ciliary neurotrophic factor peptide mimetic” (The Research Foundation for Mental Hygiene, Inc., priority 2014, dated 2017).
Entries after “also recorded” stand apart in the source; their conditions may differ. Not every detail of the peptide structures is certain; ends, links or a residue may be inferred. No end group written: not given here.

Experiments:
young Wistar rats = assay: Grooming, social approach and social novelty test (3-chamber); type: in vivo, rat
Wistar rat pups [1] = assay: Neurobehavioral development in rat pups injected i.c.v. with autism or control sera with or without P6; type: in vivo
[2] = system: mouse primary cultured cortical neurons; assay: DCFH-DA assay for generation of free radicals; type: cell-based; details: P6 0.05 μM and 1 μM pretreatment; autism sera treated neurons
CNTF = assay: Western blot of CNTF expression in rat cerebral cortex; type: in vivo
[3] = system: mouse primary cultured cortical neurons; assay: Neuronal morphology (phase contrast microscopy, β-III-tubulin staining) of neurons treated with autism sera with or without P6; type: cell-based; details: 1 μM P6 pretreatment 3 hours, 0.2% autism sera, 72 hours, DIV7
[4] = system: mouse primary cultured cortical neurons; assay: LDH cytotoxicity assay for cell death and cell viability; type: cell-based; details: P6 0.005, 0.05, 1 μM pretreatment, 0.2% autism sera 72 hours
[5] = system: cerebral cortex of young Wistar rats; assay: 8-OHdG immunohistochemistry for oxidative DNA damage in rat brain tissue; type: in vivo; details: postnatal day 26-27; autism serum + P6 vs autism serum; p<0.05
BDNF, pro-BDNF = assay: Western blot of BDNF and pro-BDNF expression in rat cerebral cortex; type: in vivo; details: P6 (20 nM) co-treatment with autistic sera
Wistar rat pups [6] = assay: Isolation-induced ultrasonic vocalizations in rat pups; type: in vivo
[7] = system: cerebral cortex of young Wistar rats; assay: Fluoro-Jade C labeling for neurodegeneration in rat brain tissue; type: in vivo; details: postnatal day 26-27; autism serum + 20 nM P6 vs autism serum; p<0.05
[8] = system: mouse primary cultured cortical neurons; assay: TBARS assay for lipid peroxidation; type: cell-based; details: P6 1 μM pretreatment; autism sera treated neurons; p>0.05
[9] = autism serum + P6 vs autism serum, p<0.05
[10] = autism serum + P6 vs autism serum, p>0.05

VGDGGLFEKKL [Peptide P6, VGDGGLFEKKL]
grooming time (young Wistar rats; 5 min habituation in central chamber, all groups incl. serum + P6, ANOVA p=0.2988): did not differ between the different groups | social novelty: sniffing time (stranger 2) (young Wistar rats; autism serum + P6 vs autism serum, p<0.001): able to rescue this deficit | social novelty: time spent in stranger 2 chamber (young Wistar rats; [9]): rescued | social approach: time interacting (sniffing) with social partner (stranger 1) (young Wistar rats; [10]): no effect | rooting reflex, day of appearance (Wistar rat pups [1]; all groups incl. serum + P6, ANOVA p=0.1044): did not reveal any significant differences among groups | forelimb grasp, day of appearance (Wistar rat pups [1]; all groups incl. serum + P6, ANOVA p=0.2626): did not reveal any significant differences among groups | auditory startle, day of appearance (Wistar rat pups [1]; all groups incl. serum + P6, ANOVA p=0.3677): did not differ between groups | cliff aversion reflex, day of appearance (Wistar rat pups [1]; all groups incl. serum + P6, ANOVA p=0.8410): did not differ significantly across groups | eye opening, day of appearance (Wistar rat pups [1]; all groups incl. serum + P6, ANOVA p=0.9708): did not differ between groups | cliff aversion reflex (Wistar rat pups [1]; autism serum + P6, postnatal days 9, 12, 15): no detectable effect | air righting, development (Wistar rat pups [1]; [9]): significantly corrected | fore limb placing (Wistar rat pups [1]; [9]): improved | ear twitch reflex, development (Wistar rat pups [1]; [10]): no significant effect | negative geotaxis, day of appearance (Wistar rat pups [1]; autism serum + ~20 nM P6 vs autism serum, t-test p=0.044): earlier development of negative geotaxis reflex | surface righting reflex, day of appearance (Wistar rat pups [1]; i.c.v. P0.5, ~2% autism serum + ~20 nM P6 vs autism serum alone, t-test p=0.074): trend towards earlier development of surface righting | negative geotaxis time (Wistar rat pups [1]; postnatal days 8, 11, 14, autism serum + P6 vs autism serum, not statistically significant): trend towards better performance | generation of free radicals (DCF-DA) [2]: significant reduction in generation of free-radicals | CNTF levels (CNTF; autism serum + P6 vs sham, autism serum, control serum, p>0.05): did not differ significantly | CNTF expression (CNTF; control serum + P6 vs control serum alone, t-test p=0.0155): significant increase in CNTF expression | neurite length and cell density (neuronal morphology) [3]: prevented the decrease in neurite length and cell density; also recorded: P6 could rescue these changes | cell death (LDH release) [4]: significant reduction in cell death | neuronal viability (percentage of untreated cells) ([4]; p>0.05): improvement in neuronal viability | 8-OHdG positive neurons [5]: exerted a beneficial effect | pro-BDNF expression normalized to GAPDH (BDNF, pro-BDNF; p<0.001): able to correct the autistic sera induced reduction | BDNF expression normalized to GAPDH (BDNF, pro-BDNF; p<0.01): able to correct the autistic sera induced reduction | number of isolation-induced ultrasonic calls (USVs) (Wistar rat pups [6]; 5 min test, postnatal days 3-11, 20 nM P6 i.c.v.): No significant effect | mean duration of ultrasonic calls (Wistar rat pups [6]; all groups incl. serum + P6, p=0.1306): did not differ between groups | neurodegeneration (Fluorojade C staining, % sham) [7]: significantly reduce this autism serum induced neurodegeration | lipid peroxidation (TBARS) [8]: trend towards reduction in lipid peroxidation
